Results deposited as PubChem BioAssay AID1259405 (NCATS, 2018).
This is one part, drawn at random, of about 50,000 reagents. Of all reagents, about 4,000 (8%) are marked active. 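Mouse siRNA library applied to hamster cells; one well for each siRNA.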 Reagents against one gene are numbered here.

- Screen: 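Mouse-designed siRNAs used to find CHO productivity engineering targets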 (primary screen)
- System: Chinese hamster CHO-K1 ovary cells with stable secreted eGFP expression
- Knock-down reagent: single siRNA against mouse genes, 0.8 pmol siRNA per well (2 µl of 400 nM stock)
- Timing: 3 days
- Measurement: 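Percent of the per-plate non-targeting control median for intracellular GFP per well by laser scanning cytometry and for cell viability by ATP luminescence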
- Scale: GFP, % of control: higher = more GFP per well, higher productivity; viability (ATP), % of control: higher = more viable cells (more ATP)
- Hit rule: 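Called active when intracellular GFP, relative to negative control, is at or above 120%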

| gene knocked down | reagent no. | GFP, % of control | viability (ATP), % of control | Call |
| --- | --- | --- | --- | --- |
| Btnl1 | 1 | 53.8 | 70.4 | inactive |
| Btnl1 | 2 | 74.1 | 70.3 | inactive |
| Btnl1 | 3 | 74.7 | 70.5 | inactive |
| Gars1 | 1 | 65.4 | 81.8 | inactive |
| Gars1 | 2 | 171 | 133 | active |
| Gars1 | 3 | 94.5 | 96.5 | inactive |
| Gars1 | 4 | 96.4 | 84 | inactive |
| Gars1 | 5 | 65.4 | 81.8 | inactive |
| Tk2 | 1 | 86.7 | 63.8 | inactive |
| Tk2 | 2 | 58.1 | 57.4 | inactive |
| Tk2 | 3 | 58.2 | 44.6 | inactive |
| Cox10 | 1 | 163 | 95 | active |
| Cox10 | 2 | 112 | 135 | inactive |
| Cox10 | 3 | 140 | 93 | active |
| Prkcg | 1 | 42 | 33.6 | inactive |
| Prkcg | 2 | 83.4 | 101 | inactive |
| Prkcg | 3 | 46.3 | 39 | inactive |
| Zbtb21 | 1 | 99.9 | 92.8 | inactive |
| Zbtb21 | 2 | 110 | 80.1 | inactive |
| Zbtb21 | 3 | 69.1 | 80 | inactive |
| Ccdc117 | 1 | 58.9 | 50.1 | inactive |
| Ccdc117 | 2 | 68.8 | 96.9 | inactive |
| Ccdc117 | 3 | 92.7 | 126 | inactive |
| Adamts19 | 1 | 81.6 | 96 | inactive |
| Adamts19 | 2 | 200 | 109 | active |
| Adamts19 | 3 | 88.1 | 68.2 | inactive |
| Map7d1 | 1 | 64.6 | 67.5 | inactive |
| Map7d1 | 2 | 62.1 | 72.3 | inactive |
| Map7d1 | 3 | 68.4 | 67.8 | inactive |
| Clic5 | 1 | 90.6 | 92 | inactive |
| Clic5 | 2 | 167 | 103 | active |
| Clic5 | 3 | 48.5 | 41.9 | inactive |
| Atp1b1 | 1 | 31.4 | 38.8 | inactive |
| Atp1b1 | 2 | 69.2 | 65.1 | inactive |
| Atp1b1 | 3 | 72 | 75.4 | inactive |

In a second layout: entries from further up.
gene knocked down | reagent no. | GFP, % of control | viability (ATP), % of control | Call
Tk2 | 3 | 58.2 | 44.6 | inactive
Cox10 | 1 | 163 | 95 | active
Cox10 | 2 | 112 | 135 | inactive
Cox10 | 3 | 140 | 93 | active
Prkcg | 1 | 42 | 33.6 | inactive
